Values quoted from earlier work, collected in patent publication US20220071944A1, “Combination Treatment for Solid Tumors Using Docetaxel and a CYP3A Inhibitor” (Modra Pharmaceuticals B.V., priority 2018, published 2022).
At least one read-out could not be matched to a standard name with certainty.

Settings: q3w IV, tumors other than mCRPC; cited from earlier work

For `CC(=O)O[C@@]12CO[C@@H]1C[C@H](O)[C@@]1(C)C(=O)[C@H](O)C3=C(C)[C@@H](OC(=O)[C@H](O)[C@@H](NC(=O)OC(C)(C)C)c4ccccc4)C[C@@](O)([C@@H](OC(=O)c4ccccc4)[C@H]21)C3(C)C` [docetaxel], the “AUC of IV docetaxel in other tumors” value is listed as 3300 ng·h/mL.
